The source of these data is paper PMC4637324.

The chains behind the UniProt entries cited, without tags or fusion partners.
UniProt O00401: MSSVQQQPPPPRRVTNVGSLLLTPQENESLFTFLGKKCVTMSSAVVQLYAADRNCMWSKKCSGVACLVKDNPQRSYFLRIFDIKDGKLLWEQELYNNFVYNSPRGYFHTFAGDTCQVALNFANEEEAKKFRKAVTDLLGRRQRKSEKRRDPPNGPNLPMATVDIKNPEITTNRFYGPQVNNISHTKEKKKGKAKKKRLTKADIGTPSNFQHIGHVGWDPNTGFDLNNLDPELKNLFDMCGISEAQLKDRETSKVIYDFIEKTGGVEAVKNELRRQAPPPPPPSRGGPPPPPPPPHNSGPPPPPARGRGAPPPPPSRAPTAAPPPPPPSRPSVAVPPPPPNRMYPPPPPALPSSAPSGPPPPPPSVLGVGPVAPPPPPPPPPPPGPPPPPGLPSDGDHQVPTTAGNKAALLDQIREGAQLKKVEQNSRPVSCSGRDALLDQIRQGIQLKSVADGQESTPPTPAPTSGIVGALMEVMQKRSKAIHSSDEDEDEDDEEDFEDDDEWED

Results are given in words; binding and its absence hold for the method and conditions named. Binding seen in cells or lysates may run through a third protein. Some results given as binding are weak or reduced against the parent protein; the word gives no strength.

The target in assay [1] is T1, RTVP-1, endogenous in glioma cells (human (endogenous in U87 and HF2609 GSCs)) (UniProt P48060).
T1 sequence: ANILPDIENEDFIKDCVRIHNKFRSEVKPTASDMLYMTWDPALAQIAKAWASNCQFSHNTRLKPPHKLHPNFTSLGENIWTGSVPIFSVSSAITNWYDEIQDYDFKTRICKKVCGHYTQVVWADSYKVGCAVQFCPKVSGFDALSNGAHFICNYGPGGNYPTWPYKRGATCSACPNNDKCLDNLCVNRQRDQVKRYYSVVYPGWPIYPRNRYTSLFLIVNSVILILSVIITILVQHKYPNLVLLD
Description: co-IP; reciprocal co-immunoprecipitation of endogenous proteins from U87 glioma cells and GSCs (HF2609).

Assay [2] deals with heterogeneous nuclear ribonucleoprotein K (hnRNPK), endogenous in glioma cells (human (endogenous in U87 and GSCs)) (UniProt P61978). In words: co-IP; lysates of U87 cells (CV cells and RTVP-1-overexpressing cells), immunoprecipitation with anti-hnRNPK antibody, blots with anti-N-WASP, anti-hnRNPK and anti-RTVP-1.

For the substance “N-WASP (neural WASP), endogenous in glioma cells (from UniProt O00401 1-505)”, the binding entry in assay [1] and in assay [2] was “binds” in each case.

“heterogeneous nuclear ribonucleoprotein K (hnRNPK), endogenous in glioma cells (from UniProt P61978 1-463)”: in assay [1], the binding result is given as “binds”.
